Counter-ions that a name gives are not always drawn. Some of the results follow. Hit calls seldom repeat between salt and free forms of one compound.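 In K562 cells expressing nanoluciferase-fused kinases, luminescence was recorded at 4 h intervals between 2 and 18 h, normalized as percent of control with DMSO at 100% and a positive control at 0%. A significant (2 sigma) signal drop marks a time point as decreased. The authors' rule for a hit is not shown and takes in more than the number of time points.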
target: CDK2 (UniProt P24941); experiment: number of time points (of 5) at which kinase-Nluc abundance scored as decreased, DMSO-normalised (count); higher = more persistent destabilization; conditions: K562; 2-18 h

The chains behind the UniProt entries cited, without tags or fusion partners. Where a name states a change or a piece, a line headed by the entry shows the natural chain unless it says otherwise.
UniProt Q00526: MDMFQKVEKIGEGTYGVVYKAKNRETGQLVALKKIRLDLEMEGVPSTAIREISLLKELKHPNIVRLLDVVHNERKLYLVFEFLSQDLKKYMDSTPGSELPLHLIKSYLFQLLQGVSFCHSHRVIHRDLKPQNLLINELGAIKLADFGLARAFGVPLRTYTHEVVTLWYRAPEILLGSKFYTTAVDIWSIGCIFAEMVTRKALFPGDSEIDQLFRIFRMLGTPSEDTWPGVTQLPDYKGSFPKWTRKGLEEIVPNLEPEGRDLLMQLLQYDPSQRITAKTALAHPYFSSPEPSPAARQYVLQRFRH

SMILES | number of time points
CS(=O)(=O)c1cccc(CNc2nc(Nc3ccc4c(c3)CCC(=O)N4)ncc2C(F)(F)F)c1 (10 µM) | 0
Nc1nc(Nc2ccc3c(c2)CC[C@@H](N2CCCC2)CC3)nn1-c1cc2c(nn1)-c1ccccc1CCC2 [Bemcentinib] (2.5 µM) | 0
Nc1[nH]nc2nnc(-c3c(-c4ccccc4)nn4ccccc34)cc12 (10 µM) | 0
CN1CCN(Cc2ccc(-c3cnc4[nH]cc(-c5ccc6[nH]ccc6c5)c4c3)cc2)CC1 (2.5 µM) | 0
CC(C)n1cnc2c(Nc3cccc(Cl)c3)nc(N[C@H]3CCCC[C@@H]3N)nc21 (2.5 µM) | 0
CCC(F)(F)c1cc(N2CCC(S(C)(=O)=O)CC2)nc2sc(C(N)=O)c(N)c12 (10 µM) | 0
CC(C)c1cc2c(c(O)c1O)[C@@]13CCCC(C)(C)[C@@H]1C[C@@H]2OC3=O [Carnosol] (2.5 µM) | 0
COc1ccc2nc3ccc(OC)cc3c(SCCCN)c2c1 (10 µM) | 0
COc1cc2nnc(C(N)=O)c(Nc3ccc(C)cc3F)c2cc1N1CCN(CCO)CC1 (2.5 µM) | 0
Nc1ccc(C(=O)Nc2cccc(-c3nc(N4CCOCC4)c4oc5ncccc5c4n3)c2)cn1 (10 µM) | 0
Cc1nn(CC(F)(F)F)cc1Nc1ncc(Br)c(NCc2ccc(S(N)(=O)=O)cc2)n1 (10 µM) | 0
O=C1NC(=O)C(Cc2c[nH]c3c(Cl)cccc23)N1 (stereo not given) [Necroptosis-IN-1] (10 µM) | 0
CCCCNc1ncc2c(-c3ccc(F)cc3)nn(CC3CCC(N)CC3)c2n1 (stereo not given) (2.5 µM) | 0
Cn1cc(-c2nc(N[C@@H]3CCCC[C@@H]3N)c(F)c3c2C(=O)NC3)cn1 [TAK-659 (hydrochloride)] (2 µM) | 0
O=C1OC(COc2ccccc2[N+](=O)[O-])CC1Cc1ccccc1 (stereo not given) (10 µM) | 0
Cc1cnc(Nc2ccc(F)cc2Cl)nc1-c1c[nH]c(C(=O)N[C@H](CO)c2cccc(Cl)c2)c1 (10 µM) | 0
N#Cc1cnc(Nc2cc(NC[C@H]3CNCCO3)c(C(F)(F)F)cn2)cn1 (10 µM) | 0
CNc1cc2c(Nc3cccc(Br)c3)ncnc2cn1 (10 µM) | 0
Cc1ncsc1-c1ccc(CNC(=O)[C@@H]2C[C@@H](O)CN2C(=O)[C@@H](NC(=O)COCCOc2ccc(-c3cc(Nc4ccc(OC(F)(F)F)cc4)ncn3)cc2)C(C)(C)C)cc1 (2.5 µM) | 0
O=CN1CCN(c2ccc(C=C3C(=O)Nc4ccccc43)cc2)CC1 (10 µM) | 0
CN1C(=O)[C@@H](NC(=O)c2cc(Cc3ccccc3)on2)COc2ccccc21 (10 µM) | 0
O=C(CCl)c1c[nH]c2ccccc12 (2.5 µM) | 0
NC(=O)c1c(NC(=O)C2CC2)sc2c1CCCC2 (10 µM) | 0
CN(C)c1ccc(/C=C2\C(=O)Nc3ccccc32)c2ccccc12 (10 µM) | 0
O=C(O)c1c[nH]c2cc(Cl)c(-c3ccc(C4(O)CCC4)cc3)cc12 (10 µM) | 0
CC1=C(C#N)C(c2ccc3[nH]nc(C)c3c2)C(C#N)=C(C)N1 (10 µM) | 0

target: CDK3 (UniProt Q00526); experiment: as above; conditions: K562; 2-18 h

SMILES | number of time points
Cn1c(N2CCO[C@@H](c3ccc(F)cc3)C2)nc(-c2ccncn2)cc1=O (10 µM) | 0
C[C@@H](NC(=O)c1ncnc(N)c1Cl)c1ncc(C(=O)Nc2cc(C(F)(F)F)c(Cl)cn2)s1 (2.5 µM) | 0
CO/N=C1/C(c2c(O)[nH]c3cc(Cl)c(Cl)cc23)=Nc2ccccc21 (10 µM) | 0
Cc1n[nH]c2ncc(C(=O)N3CCC[C@H]3c3ccc(Cl)cc3)cc12 (10 µM) | 0
Cc1ccc(Nc2cc(N[C@@H]3CCCC[C@@H]3N)nnc2C(N)=O)nc1C (2 µM) | 0
NC(=O)c1cnc(N[C@@H]2CCCC[C@@H]2N)nc1Nc1cccc(-n2nccn2)c1 (2.5 µM) | 0
CCc1c(C(=O)NNC(=O)[C@H](O)c2cc(F)cc(F)c2)ccc(O)c1C (10 µM) | 0
CC/C(=C(\c1ccccc1)c1ccc(OCCNC)cc1)c1ccccc1 [N-Desmethyltamoxifen (hydrochloride)] (2.5 µM) | 0
CCCCNc1ncc(C(=O)NCc2ccc(-n3ccnc3)cc2)c(NC2CCC(O)CC2)n1 (stereo not given) (10 µM) | 0
Oc1ccc(-c2cnc3ccc(NCc4ccco4)nn23)cc1 [IRAK inhibitor 2] (2.5 µM) | 0
CS(=O)(=O)c1ccc([C@@H](CC2CCCC2)C(=O)Nc2nccs2)cc1 (10 µM) | 0
CC(=O)O/N=C1/C(c2c(O)[nH]c3cc(Br)ccc23)=Nc2ccccc21 [BIO-acetoxime] (10 µM) | 0
COc1cc2nc(-c3cc(F)ccc3O)nc(N[C@@H]3CNC[C@H]3C(C)(C)O)c2cc1OC (2.5 µM) | 0
CS(=O)(=O)c1cccc(CNc2nc(Nc3ccc4c(c3)CCC(=O)N4)ncc2C(F)(F)F)c1 (10 µM) | 0
Nc1nc(Nc2ccc3c(c2)CC[C@@H](N2CCCC2)CC3)nn1-c1cc2c(nn1)-c1ccccc1CCC2 [Bemcentinib] (2.5 µM) | 0
Nc1[nH]nc2nnc(-c3c(-c4ccccc4)nn4ccccc34)cc12 (10 µM) | 0
CN1CCN(Cc2ccc(-c3cnc4[nH]cc(-c5ccc6[nH]ccc6c5)c4c3)cc2)CC1 (2.5 µM) | 0
CC(C)n1cnc2c(Nc3cccc(Cl)c3)nc(N[C@H]3CCCC[C@@H]3N)nc21 (2.5 µM) | 0
CCC(F)(F)c1cc(N2CCC(S(C)(=O)=O)CC2)nc2sc(C(N)=O)c(N)c12 (10 µM) | 0
CC(C)c1cc2c(c(O)c1O)[C@@]13CCCC(C)(C)[C@@H]1C[C@@H]2OC3=O [Carnosol] (2.5 µM) | 0

SMILES | number of time points
COc1ccc2nc3ccc(OC)cc3c(SCCCN)c2c1 (10 µM) | 0
COc1cc2nnc(C(N)=O)c(Nc3ccc(C)cc3F)c2cc1N1CCN(CCO)CC1 (2.5 µM) | 0
Nc1ccc(C(=O)Nc2cccc(-c3nc(N4CCOCC4)c4oc5ncccc5c4n3)c2)cn1 (10 µM) | 0
Cc1nn(CC(F)(F)F)cc1Nc1ncc(Br)c(NCc2ccc(S(N)(=O)=O)cc2)n1 (10 µM) | 0
O=C1NC(=O)C(Cc2c[nH]c3c(Cl)cccc23)N1 (stereo not given) [Necroptosis-IN-1] (10 µM) | 0
CCCCNc1ncc2c(-c3ccc(F)cc3)nn(CC3CCC(N)CC3)c2n1 (stereo not given) (2.5 µM) | 0
Cn1cc(-c2nc(N[C@@H]3CCCC[C@@H]3N)c(F)c3c2C(=O)NC3)cn1 [TAK-659 (hydrochloride)] (2 µM) | 0
O=C1OC(COc2ccccc2[N+](=O)[O-])CC1Cc1ccccc1 (stereo not given) (10 µM) | 0
Cc1cnc(Nc2ccc(F)cc2Cl)nc1-c1c[nH]c(C(=O)N[C@H](CO)c2cccc(Cl)c2)c1 (10 µM) | 0
N#Cc1cnc(Nc2cc(NC[C@H]3CNCCO3)c(C(F)(F)F)cn2)cn1 (10 µM) | 0
CNc1cc2c(Nc3cccc(Br)c3)ncnc2cn1 (10 µM) | 0
Cc1ncsc1-c1ccc(CNC(=O)[C@@H]2C[C@@H](O)CN2C(=O)[C@@H](NC(=O)COCCOc2ccc(-c3cc(Nc4ccc(OC(F)(F)F)cc4)ncn3)cc2)C(C)(C)C)cc1 (2.5 µM) | 0
O=CN1CCN(c2ccc(C=C3C(=O)Nc4ccccc43)cc2)CC1 (10 µM) | 0
CN1C(=O)[C@@H](NC(=O)c2cc(Cc3ccccc3)on2)COc2ccccc21 (10 µM) | 0
O=C(CCl)c1c[nH]c2ccccc12 (2.5 µM) | 0
NC(=O)c1c(NC(=O)C2CC2)sc2c1CCCC2 (10 µM) | 0
CN(C)c1ccc(/C=C2\C(=O)Nc3ccccc32)c2ccccc12 (10 µM) | 0
O=C(O)c1c[nH]c2cc(Cl)c(-c3ccc(C4(O)CCC4)cc3)cc12 (10 µM) | 0
CC1=C(C#N)C(c2ccc3[nH]nc(C)c3c2)C(C#N)=C(C)N1 (10 µM) | 0

Reference: the supplement of paper PMC12823440, “Inhibitors supercharge kinase turnover through native proteolytic circuits” (Nature, 2025)
